Results as given in PMC3568144, “Pseudomonas aeruginosa PA1006 Is a Persulfide-Modified Protein That Is Critical for Molybdenum Homeostasis” (PLoS ONE, 2013).
No constants are given. Whether binding was seen depends on the method and setting. Binding seen in cells or lysates may run through a third protein. Binding calls can cover weak binding; strength is not graded here. For some assays here: Tags and fused reporters may be left off the sequences shown. Blank lines part the entries; values can stand above or below the substance they belong to.

Sequences of proteins named here, by UniProt entry; tags and fusion partners are left off. A change or cut given only in a name is not applied to a line headed by its entry.
UniProt Q9HZH8: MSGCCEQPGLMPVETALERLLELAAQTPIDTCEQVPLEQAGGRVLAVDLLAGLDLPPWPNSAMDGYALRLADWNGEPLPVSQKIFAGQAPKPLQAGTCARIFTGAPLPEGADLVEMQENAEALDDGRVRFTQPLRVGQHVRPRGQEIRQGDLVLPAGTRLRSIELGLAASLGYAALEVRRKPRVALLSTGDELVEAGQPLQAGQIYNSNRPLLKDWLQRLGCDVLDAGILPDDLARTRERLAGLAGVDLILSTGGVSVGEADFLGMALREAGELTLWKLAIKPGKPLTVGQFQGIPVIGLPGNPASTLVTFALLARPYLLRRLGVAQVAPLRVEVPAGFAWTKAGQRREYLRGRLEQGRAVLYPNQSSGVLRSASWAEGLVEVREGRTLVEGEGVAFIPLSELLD
UniProt Q9HX99: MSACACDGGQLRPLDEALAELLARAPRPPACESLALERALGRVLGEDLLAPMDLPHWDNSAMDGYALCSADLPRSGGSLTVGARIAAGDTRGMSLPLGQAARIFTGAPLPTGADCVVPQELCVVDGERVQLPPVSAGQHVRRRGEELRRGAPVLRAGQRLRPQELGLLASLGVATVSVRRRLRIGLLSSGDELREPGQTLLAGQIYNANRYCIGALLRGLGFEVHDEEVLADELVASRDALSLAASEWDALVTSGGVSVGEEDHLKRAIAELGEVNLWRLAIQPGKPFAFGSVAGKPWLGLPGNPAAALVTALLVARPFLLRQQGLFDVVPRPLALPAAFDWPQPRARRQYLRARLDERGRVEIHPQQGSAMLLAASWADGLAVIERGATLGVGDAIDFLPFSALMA
UniProt Q9HX96: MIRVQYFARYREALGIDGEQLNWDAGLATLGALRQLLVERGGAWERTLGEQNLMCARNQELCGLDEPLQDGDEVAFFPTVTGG

Assays:
Experiment in all cases: split reporter; GFP protein fragment complementation assay (GFP-PFCA) in P. aeruginosa cells; NGFP fusion from pEX1.8 (IPTG), CGFP fusion from the chromosome (arabinose); scored by eye with fluorescence microscopy
[1] = target: T1, PA1006 (GFP-PFCA fusion in Pae) (Pseudomonas aeruginosa) (UniProt Q9I4W7)
T1 sequence: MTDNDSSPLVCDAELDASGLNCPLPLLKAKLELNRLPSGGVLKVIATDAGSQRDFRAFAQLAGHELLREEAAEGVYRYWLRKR

[2] = target: T2, PA3030/MobA (GFP-PFCA fusion in Pae) (Pseudomonas aeruginosa) (UniProt O68799)
T2 sequence: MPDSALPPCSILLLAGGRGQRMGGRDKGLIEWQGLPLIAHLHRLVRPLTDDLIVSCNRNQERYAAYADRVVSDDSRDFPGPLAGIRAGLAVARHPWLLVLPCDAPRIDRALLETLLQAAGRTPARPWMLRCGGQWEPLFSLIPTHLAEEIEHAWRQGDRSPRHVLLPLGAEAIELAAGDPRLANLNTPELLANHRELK

[3] = target: PA3028/MoeA2 (GFP-PFCA fusion in Pae) (Pseudomonas aeruginosa) (UniProt Q9HZH8)
[4] = target: T3, PA3918/MoaC (GFP-PFCA fusion in Pae) (Pseudomonas aeruginosa) (UniProt Q9HX95)
T3 sequence: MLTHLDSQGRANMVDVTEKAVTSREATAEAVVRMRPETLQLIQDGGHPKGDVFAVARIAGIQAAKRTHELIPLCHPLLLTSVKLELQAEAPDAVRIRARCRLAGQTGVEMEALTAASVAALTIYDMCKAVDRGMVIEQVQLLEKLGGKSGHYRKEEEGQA

[5] = target: T4, PA3870/MoaA1 (GFP-PFCA fusion in Pae) (Pseudomonas aeruginosa) (UniProt Q9HXD6)
T4 sequence: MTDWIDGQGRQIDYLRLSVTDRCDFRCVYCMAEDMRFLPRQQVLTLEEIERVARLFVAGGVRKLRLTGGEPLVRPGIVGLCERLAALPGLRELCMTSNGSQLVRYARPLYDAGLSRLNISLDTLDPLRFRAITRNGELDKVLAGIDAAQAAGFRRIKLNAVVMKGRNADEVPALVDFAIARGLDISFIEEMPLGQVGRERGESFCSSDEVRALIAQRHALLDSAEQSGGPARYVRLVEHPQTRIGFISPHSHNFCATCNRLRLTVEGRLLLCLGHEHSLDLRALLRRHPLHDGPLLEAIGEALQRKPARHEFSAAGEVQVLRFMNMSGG

[6] = target: PA3914/MoeA1 (GFP-PFCA fusion in Pae) (Pseudomonas aeruginosa) (UniProt Q9HX99)
[7] = target: T5, PA1505/MoaA2 (GFP-PFCA fusion in Pae) (Pseudomonas aeruginosa) (UniProt Q9I3K7)
T5 sequence: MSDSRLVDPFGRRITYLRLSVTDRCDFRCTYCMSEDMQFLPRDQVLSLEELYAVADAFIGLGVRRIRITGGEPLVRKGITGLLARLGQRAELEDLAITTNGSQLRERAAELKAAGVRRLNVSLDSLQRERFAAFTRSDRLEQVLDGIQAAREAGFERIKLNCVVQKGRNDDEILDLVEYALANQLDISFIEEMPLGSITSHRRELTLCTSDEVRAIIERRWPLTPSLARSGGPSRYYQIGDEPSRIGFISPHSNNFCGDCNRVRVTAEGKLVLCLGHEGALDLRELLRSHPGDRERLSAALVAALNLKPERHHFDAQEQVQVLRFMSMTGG

[8] = target: T6, PA3916/MoaE (GFP-PFCA fusion in Pae) (Pseudomonas aeruginosa) (UniProt Q9HX97)
T6 sequence: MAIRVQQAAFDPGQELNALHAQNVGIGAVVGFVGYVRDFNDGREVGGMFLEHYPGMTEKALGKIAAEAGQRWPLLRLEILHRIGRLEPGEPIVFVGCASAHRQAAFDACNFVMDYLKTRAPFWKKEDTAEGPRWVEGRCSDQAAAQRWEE

binding [1]: binds
Substance: PA3028/MoeA2 (GFP-PFCA fusion in Pae) (from UniProt Q9HZH8)

binding [1]: binds
Substance: PA3668/CsdE (GFP-PFCA fusion in Pae) (Pseudomonas aeruginosa)

binding [1]: binds
Substance: PA3914/MoeA1 (GFP-PFCA fusion in Pae) (from UniProt Q9HX99)

binding [2]: binds | binding [3]: binds | binding [4]: binds | binding [5]: binds | binding [6]: binds | binding [1]: binds | binding [7]: binds | binding [8]: binds
Substance: PA3917/MoaD (GFP-PFCA fusion in Pae) (from UniProt Q9HX96)
